Measurements published in patent US10543284B2 (Suzhou Suncadia Biopharmaceuticals Co., Ltd., priority 2015, dated 2020).

Assay: general procedure: solution-phase peptide synthesis; 2-(7-Azabenzotriazol)-N,N,N',N'-tetramethyluronium hexafluorophosphate / N,N-dii
Conditions: late stage modification step

## (S)-2-((2R,3R)-3-((1S,3S,5S)-2-((3R,4S,5S)-4-((S)—N,3-dimethyl-2-((S)-3-methyl-2-(methylamino)butanamide)butanamide)-3-methoxy-5-methylheptanoyl)-2-azabicyclo[3.1.0]hexane-3-yl)-3-methoxy-2-methylpropanamido)-3-(2-fluorophenyl) propionic acid
  step yield: 20%
